For some assays here: For at least one compound, name, drawing or mass did not settle the structure. Some results were stated once for a whole list of compounds, not compound by compound.
Key:
ACK1 = ACK1 (Homo sapiens, UniProt Q07912); assay: ACK1 ELISA: phosphorylation of AKT-derived peptide; format: biochemical; details: 10 μM
[1] = system: LNCaP cells expressing constitutively activated ACK1; details: mouse xenograft model; literature; cited from earlier work

The chains behind the UniProt entries cited, without tags or fusion partners. Where a name states a change or a piece, a line headed by the entry shows the natural chain unless it says otherwise.
UniProt Q07912: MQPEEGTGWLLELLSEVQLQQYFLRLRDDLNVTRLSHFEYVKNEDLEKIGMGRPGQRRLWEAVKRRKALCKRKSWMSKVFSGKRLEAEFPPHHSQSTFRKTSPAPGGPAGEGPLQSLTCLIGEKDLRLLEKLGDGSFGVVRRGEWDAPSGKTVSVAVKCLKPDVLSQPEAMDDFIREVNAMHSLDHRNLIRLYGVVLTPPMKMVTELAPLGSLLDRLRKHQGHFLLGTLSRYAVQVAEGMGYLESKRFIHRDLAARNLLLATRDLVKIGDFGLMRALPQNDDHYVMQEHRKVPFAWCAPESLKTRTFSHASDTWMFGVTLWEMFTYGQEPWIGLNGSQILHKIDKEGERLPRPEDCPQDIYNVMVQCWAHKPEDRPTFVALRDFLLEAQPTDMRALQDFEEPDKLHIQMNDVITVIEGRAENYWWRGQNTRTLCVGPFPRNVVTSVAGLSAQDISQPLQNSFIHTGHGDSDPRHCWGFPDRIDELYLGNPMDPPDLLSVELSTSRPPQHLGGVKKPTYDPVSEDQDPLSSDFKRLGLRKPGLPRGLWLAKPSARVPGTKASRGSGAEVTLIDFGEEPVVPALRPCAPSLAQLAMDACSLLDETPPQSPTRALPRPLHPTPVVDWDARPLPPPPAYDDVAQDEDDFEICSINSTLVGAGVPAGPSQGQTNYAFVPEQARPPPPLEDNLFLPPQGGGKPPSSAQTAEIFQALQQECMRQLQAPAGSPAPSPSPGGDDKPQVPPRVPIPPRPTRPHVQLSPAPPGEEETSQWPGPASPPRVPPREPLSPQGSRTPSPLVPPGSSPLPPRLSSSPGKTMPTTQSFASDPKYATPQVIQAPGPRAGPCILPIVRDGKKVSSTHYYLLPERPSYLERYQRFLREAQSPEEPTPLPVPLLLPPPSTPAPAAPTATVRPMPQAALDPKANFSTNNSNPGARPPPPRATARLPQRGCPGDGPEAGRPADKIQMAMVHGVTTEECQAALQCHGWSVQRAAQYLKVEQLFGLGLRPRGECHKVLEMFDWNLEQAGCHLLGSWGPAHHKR

| Compound | fold improvement in ACK1 inhibition (ELISA) versus F and methyl analogs (ACK1) | growth of LNCaP cells expressing constitutively activated ACK1, xenograft [1] |
| --- | --- | --- |
| O=C(Nc1c(F)cccc1Cl)c1cnc(Nc2ccc(O)cc2)nc1NCC1CCCO1 (centres unmarked) [Compound 9r] | 2-10 fold | – |
| Cc1nc(Nc2ncc(C(=O)Nc3c(C)cccc3Cl)s2)cc(N2CCN(CCO)CC2)n1 [Dasatinib] | – | significantly reduced the growth |
